The whole screen tested about 360,000 compounds, of which about 7,500 (2.1%) were called active. Inconclusive results, whose numbers are uncertain, are shown with a selection of clear calls. The call rests on the fitted dose curve; in most records, active means well fitted inhibition curve with a large enough effect; inconclusive means small, poorly fitted or top-dose-only effect, or effect the other way; inactive means flat fitted curve, though single readings scatter. Potencies beside an inconclusive call are fits to weak or partial responses and may not hold up.
Assay: Nrf2 qHTS screen for inhibitors; further: nearly all actives have a fitted effect of over 60% in size
Conditions: A549 ARE-Fluc reporter, luciferase luminescence, 18-24 h; activity change, negative = inhibition: at 46 µM (top of the series)
Summary of the method: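 A549 ARE_Fluc cells, 5000/well, 5% FBS OPTI-MEM; compounds in dose-response, 18-24 h at 37 °C/5% CO2; CellTiter-Fluor viability read (Ex 405/Em 525), then BugLite luciferase luminescence = Nrf2 activity.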
On the % scale 0 is the no-effect control and ±100 the full control effect; potency means the concentration at half of the fitted maximal effect.

**Q.** For `CCc1ccc(NC(=O)C2CCCN(S(=O)(=O)c3ccc4[nH]c(=O)ccc4c3)C2)cc1` (stereo not drawn), which Potency is on record?
**A.** inconclusive: 32.6 µM [falling, single point]

**Q.** With `CN(C(=O)CSc1nc2[nH]ncc2c(=O)[nH]1)c1ccccc1` as the molecule, how does the “activity change, negative = inhibition” value read?
**A.** inactive: 2.23%

**Q.** Which “activity change, negative = inhibition” value does the source give for `CC(=O)COc1ccc2c3c(c(=O)oc2c1C)CCCCC3` here?
**A.** inactive: 21.5%

**Q.** With `CCC1CN(C(=O)NCc2ccc(F)cc2)c2cc(C)ccc2O1` (stereo not drawn) as the molecule, how does the Potency read?
**A.** active: 20.6 µM

**Q.** With `NC(=O)c1ccc(NC(=O)COC(=O)CC2Sc3ccccc3NC2=O)cc1` (stereo not drawn) as the molecule, how does the Potency read?
**A.** inconclusive: 29.1 µM [activator, partial curve, poor fit]

**Q.** Which “activity change, negative = inhibition” value does the source give for `O=C(O)c1ccccc1NS(=O)(=O)c1cccc(C(F)(F)F)c1` here?
**A.** inactive: -15.3%

**Q.** With `COc1ccccc1NC(=O)COc1ccc(C(=O)NCc2ccccc2)cc1OC` as the molecule, how does the Potency read?
**A.** inconclusive: 25.9 µM [falling, single point]

**Q.** With `C[C@H]1C[C@H]2[C@@H]3CCC4=CC(=O)C=C[C@]4(C)[C@@]3(F)[C@@H](O)C[C@]2(C)[C@@]1(O)C(=O)CO` as the molecule, how does the Potency read?
**A.** active: 0.0164 µM

**Q.** With `Cc1cc(NS(=O)(=O)c2ccc(NC(=O)COc3ccccc3C(C)C)cc2)no1` as the molecule, how does the Potency read?
**A.** inconclusive: 29.1 µM [falling, single point]

**Q.** Which Potency does the source give for `COc1ccc(-n2ncc3c(NC(C)C)ncnc32)cc1` here?
**A.** inconclusive: 0.146 µM [activator, full curve, poor fit]

**Q.** For `CC(C)(C)OC(=O)N1CCC(c2c(C(=O)N3CCN(c4cccc(Cl)c4)CC3)cnn2-c2cccc(Cl)c2)CC1`, which Potency is on record?
**A.** inconclusive: 11.6 µM [falling, partial curve, poor fit]

**Q.** With `N#CC1CC(c2ccc([N+](=O)[O-])cc2)=NN1c1ccc([N+](=O)[O-])cc1` (stereo not drawn) as the molecule, how does the “activity change, negative = inhibition” value read?
**A.** inactive: -24.3%

**Q.** For `CCCC1c2ccc(C)n2CCN1C(=O)Nc1ccccc1Cl` (stereo not drawn), which Potency is on record?
**A.** inconclusive: 20.6 µM [activator, single point]

**Q.** For `COc1cccc(NC(=O)C(NCC2CCCCC2)c2ccccc2)c1` (stereo not drawn), which “activity change, negative = inhibition” value is on record?
**A.** inactive: 23.1%

**Q.** Which Potency does the source give for `O=C(COc1ccccc1[N+](=O)[O-])Nc1ccc(NC(=O)c2cc3ccccc3o2)cc1` here?
**A.** inconclusive: 11.6 µM [falling, partial curve]

**Q.** With `CC(C)(C)c1cc(Cl)c(O)c(NC(=S)NC(=O)c2cccnc2)c1` as the molecule, how does the Potency read?
**A.** inconclusive: 29.1 µM [falling, single point]

**Q.** Which Potency does the source give for `COc1ccc(N2CCC(CNC(=O)Nc3ccccc3)C2)cc1` (stereo not drawn) here?
**A.** inconclusive: 29.1 µM [falling, partial curve, poor fit]

**Q.** Which Potency does the source give for `CC1=CC(C)(C)Nc2ccc(OC(=O)C(C)N3C(=O)c4ccccc4C3=O)cc21` (stereo not drawn) here?
**A.** active: 25.9 µM

**Q.** For `Clc1ccccc1N=C1SCCS1`, which Potency is on record?
**A.** inconclusive: 9.2 µM [activator, partial curve, poor fit]

**Q.** Which Potency does the source give for `O=C(NCc1ccccc1)C1CCN(c2ncnc3c2nc2n3CCCCC2)CC1` here?
**A.** inconclusive: 10.3 µM [activator, partial curve, poor fit]

**Q.** Which Potency does the source give for `Cc1[nH]c(=O)c(C(=O)c2cc(Cl)ccc2O)cc1C(=O)O` here?
**A.** inconclusive: 2.06 µM [activator, partial curve]

**Q.** With `Cn1c2ccccc2c(=O)c2cc(C#Cc3ccccn3)ccc21` as the molecule, how does the Potency read?
**A.** inconclusive: 2.91 µM [activator, full curve]

**Q.** With `N/C(=N\OC(=O)c1cccc([N+](=O)[O-])c1)c1cccnc1` as the molecule, how does the Potency read?
**A.** inconclusive: 18.4 µM [activator, partial curve]

**Q.** Which Potency does the source give for `c1cc2ccc3ccc(-n4cnnn4)c4ccc(c1)c2c34` here?
**A.** inconclusive: 18.4 µM [falling, single point]

**Q.** For `CCOc1ccc(NC(=S)NN(C)C(=S)Nc2ccc(OCC)cc2)cc1`, which Potency is on record?
**A.** inconclusive: 29.1 µM [falling, single point]

**Q.** For `O=C(COc1cc(Cl)c(Cl)cc1Cl)NC(=O)NC1CCCC1`, which Potency is on record?
**A.** inconclusive: 10.3 µM [activator, partial curve, poor fit]

**Q.** For `Cc1c(C(=O)OCc2ccccc2)[nH]c2c1C(=O)CC(c1ccco1)C2` (stereo not drawn), which “activity change, negative = inhibition” value is on record?
**A.** inactive: -14.4%

**Q.** For `Cc1sc(C(=O)Nc2ccc3ccccc3c2)cc1CC(=O)O`, which Potency is on record?
**A.** inconclusive: 11.6 µM [activator, partial curve]

**Q.** For `CCOCCOC(=O)Cn1cnc2scc(-c3ccc(C)cc3)c2c1=O`, which “activity change, negative = inhibition” value is on record?
**A.** inactive: 13.8%

**Q.** With `Cc1cc(C(=O)Nc2ccc(N3CCOCC3)c3nonc23)ccc1[N+](=O)[O-]` as the molecule, how does the Potency read?
**A.** inconclusive: 16.4 µM [falling, partial curve, poor fit]

**Q.** With `O=C(NCC1CCCO1)c1cc2n(n1)C(C(F)(F)F)CC(c1ccc(F)cc1)N2` (stereo not drawn) as the molecule, how does the Potency read?
**A.** inconclusive: 0.0092 µM [falling, full curve, poor fit]

**Q.** Which Potency does the source give for `NC(=O)CC(NC(=O)Cc1ccc(Cl)cc1)c1ccc(NC2CC3CCC2C3)c([N+](=O)[O-])c1` (stereo not drawn) here?
**A.** inconclusive: 6.51 µM [falling, full curve, poor fit]

**Q.** Which Potency does the source give for `O=C(NCC(=O)N1CCCCCCC1)c1ccccc1Br` here?
**A.** inconclusive: 18.4 µM [activator, single point]

**Q.** Which Potency does the source give for `Cc1ccc2nc(NC(=O)COC(=O)c3cccnc3)sc2c1` here?
**A.** inconclusive: 18.4 µM [activator, partial curve]

**Q.** Which Potency does the source give for `O=C(NCc1nc2ccccc2[nH]1)c1cccs1` here?
**A.** inconclusive: 13 µM [activator, partial curve]

**Q.** Which Potency does the source give for `O=C(CNC(=O)C12CC3CC(CC(C3)C1)C2)N1CCN(S(=O)(=O)c2cccs2)CC1` here?
**A.** inconclusive: 9.2 µM [falling, partial curve]

**Q.** For `Cc1ccc(NC(=O)c2ccc(F)cc2F)cc1`, which Potency is on record?
**A.** inconclusive: 8.2 µM [activator, partial curve]

**Q.** For `Cc1nn(-c2ccccc2)c(C)c1C(=O)OCC(=O)NC12CC3CC(CC(C3)C1)C2`, which “activity change, negative = inhibition” value is on record?
**A.** inactive: -1.52%

**Q.** For `O=C(NNC(=O)c1cccc(Br)c1)Nc1ccc(Cl)cc1`, which “activity change, negative = inhibition” value is on record?
**A.** inactive: 1.77%

**Q.** With `COc1ccc(C2OC3=C(Nc4cc(C)c(C)cc4N3)C2=O)cc1` (stereo not drawn) as the molecule, how does the Potency read?
**A.** inconclusive: 2.06 µM [activator, partial curve]

**Q.** With `CC1CCN(C(=O)C(C)c2ccc([N+](=O)[O-])cc2)CC1` (stereo not drawn) as the molecule, how does the “activity change, negative = inhibition” value read?
**A.** inactive: -0.0988%

**Q.** Which Potency does the source give for `COc1ccc(CCNC(=O)c2ccc(CS(=O)(=O)c3ccc(Cl)cc3)o2)cc1OC` here?
**A.** inconclusive: 14.6 µM [falling, partial curve, poor fit]

**Q.** Which Potency does the source give for `COc1ccc(-c2csc(/N=C/N(C)C)n2)cc1OC` here?
**A.** inconclusive: 9.2 µM [activator, partial curve]

From PubChem BioAssay AID504444 (National Center for Advancing Translational Sciences (NCATS), 2011)
